The data set can be described thus: general procedure: Fmoc solid-phase peptide synthesis; 2-chlorotrityl chloride (2-CTC) resin; Wang resin for microwave-assisted synthesis; HATU/DIPEA. The settings on record: whole synthesis.

This passage reports difficulty met results from PMC7915682 (Biomedicines, 2021).

On to “HELM PEPTIDE1{S.[meT].H.F.P.[meI].C.[meI].F}$$$$V2.0 (N-terminus assumed; SMILES CC[C@H](C)[C@@H](C(=O)N[C@@H](Cc1ccccc1)C(=O)O)N(C)C(=O)[C@H](CS)NC(=O)[C@H]([C@@H](C)CC)N(C)C(=O)[C@@H]1CCCN1C(=O)[C@H](Cc1ccccc1)NC(=O)[C@H](Cc1c[nH]cn1)NC(=O)[C@H]([C@@H](C)O)N(C)C(=O)[C@@H](N)CO)”, for which the difficulty met entry is given as “considering the challenges faced in the synthesis of the tri-N-methylated derivative”.
